PubChem BioAssay AID504834 (National Center for Advancing Translational Sciences (NCATS), 2011)
Hit rate of the full screen: of about 320,000 compounds, about 22,000 (6.9%) were called active. Inconclusive results, whose numbers are uncertain, are shown with a selection of clear calls. The call rests on the fitted dose curve; in most records, active means well fitted inhibition curve with a large enough effect; inconclusive means small, poorly fitted or top-dose-only effect, or another doubt; inactive means no such curve, though single readings can be large or run the other way. Where the call is inconclusive, the potency comes from a doubtful curve fit.

Assay: Primary qHTS for delayed death inhibitors of the malarial parasite plastid, 96 hour incubation
Details: P. falciparum luciferase reporter growth; series mostly up to 28.7 µM
In short: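 Readout is luminescence from an integrated firefly luciferase in P. falciparum. Red cells, 2% hematocrit and 0.05% parasitemia final, were cultured with compound through two parasite generations (96 hours) at 37 C, 5% CO2.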
Potency means the concentration at half of the fitted maximal effect.

Structure (SMILES)	Potency
CCOc1ccc(NC(=O)c2cc(C3CC3)nc3c2cnn3C(C)C)cc1OC	active: 13.1 µM
O=C(CSc1nc2nn(-c3ccccc3)c(=O)c-2c2n1CCCCC2)NCCCc1ccccc1	inconclusive: 1.65 µM [inhibitor, full curve]
O=C(COc1cccc2ccccc12)NCc1cccnc1	inactive
CCOc1ccccc1NC(=O)c1ccc(CN2CCc3ccccc3C2)cc1	inconclusive: 18.5 µM [inhibitor, single point]
Cn1cccc1Cc1nnc(SCC(=O)Nc2ccccc2F)n1-c1ccc(F)cc1	inconclusive: 11.7 µM [inhibitor, single point]
Cc1ccc(NCC(=O)Nc2cccc(F)c2)cc1S(=O)(=O)N1CCCCCC1	active: 0.208 µM
O=C1NC(=Nc2ccc(F)cc2)SC1Cc1ccc(F)cc1 (configuration not stated)	active: 8.28 µM
COc1ccc(OCCCON2C(=O)c3ccccc3C2=O)cc1	inconclusive: 11.7 µM [inhibitor, single point]
CC1(C)CCN(Cc2ccccc2)C1CC#N (configuration not stated)	inactive
O=C1CNC(=O)N1CC(O)Cn1c2ccccc2c2ccccc21 (configuration not stated)	inactive
CCCc1cc(=O)[nH]c(SCC(=O)NC2(C#N)CCCCC2)n1	inactive
C=C(C)C(=O)OCC(=O)NCc1ccccc1	inconclusive: 13.1 µM [inhibitor, single point]
CCCC(=O)Nc1ccc(C(=O)/C=C/c2ccc(SC)cc2)cc1	inconclusive: 0.738 µM [inhibitor, full curve]
CCNCCC(=O)N1c2ccccc2Sc2ccc(C(F)(F)F)cc21	inconclusive: 2.62 µM [inhibitor, single point]
Cc1cccc(N=C2NC(=O)C(CO)(CO)S2)c1	inconclusive: 18.5 µM [inhibitor, single point]
COc1ccc(OC)c(NC(=S)NCc2cccs2)c1	inconclusive: 18.5 µM [inhibitor, single point]
N#Cc1ccsc1NC(=O)CCS(=O)(=O)c1ccccc1	inconclusive: 11.7 µM [inhibitor, partial curve]
Cc1c(NC(=O)CSc2nnnn2-c2ccc(O)cc2)c(=O)n(-c2ccccc2)n1C	inconclusive: 18.5 µM [inhibitor, partial curve, poor fit]
CCn1cc(Cl)c(C(=O)Nc2nc3ccccc3n2CCN2CCCCC2)n1	inconclusive: 0.0586 µM [inhibitor, full curve, poor fit]
COc1ccc(/C=C2/CCc3ccccc3C2=O)cc1OC	inconclusive: 2.94 µM [inhibitor, partial curve, poor fit]
COc1ccc(Nc2oc(-c3ccccc3)nc2C#N)cc1	inconclusive: 0.0033 µM [inhibitor, full curve, poor fit]
Cc1cccc(-c2oc3ccc(-c4ccc5c(c4)OCO5)cc3c2C#Cc2cncn2C)c1	active: 1.17 µM
Cc1cccc(OCCC(=O)Nc2c(C)n(C)n(-c3ccccc3)c2=O)c1	inconclusive: 18.5 µM [inhibitor, single point]
CCCCC(=O)Nc1ccc(NC(=S)NC(=O)CC(C)C)cc1OC	inactive

Structure (SMILES)	Potency
Cc1cc(NC(=O)c2c(-c3c(Cl)cccc3Cl)noc2C)n(C)n1	inconclusive: 3.7 µM [inhibitor, partial curve, poor fit]
Cc1ccc(S(=O)(=O)NC(=O)NC(=O)N(C)S(=O)(=O)c2ccc(C)cc2)cc1	inactive
COc1ccc(N2CCN(C(=O)C3CCCN3S(=O)(=O)c3cccc4nsnc34)CC2)cc1 (configuration not stated)	inconclusive: 18.5 µM [inhibitor, single point]
CC1CCN(S(=O)(=O)c2ccc(C(=O)N3CCOCC3)cc2)CC1	inconclusive: 5.86 µM [inhibitor, partial curve]
CCc1ccc(-c2cn(-c3nc(C)cc(C)n3)c(=N)o2)cc1	active: 10.4 µM
COc1ccc(OCC(=O)NC2CC(C)(C)NC(C)(C)C2)cc1	inconclusive: 13.1 µM [inhibitor, partial curve, poor fit]
COc1ccccc1C(CNC(=O)c1ccc(S(=O)(=O)N2CCCCC2)cc1)N(C)C (configuration not stated)	inactive
Clc1ccc(CSc2nnc(-c3ccccn3)n2Cc2ccco2)c(Cl)c1	active: 14.7 µM
Cc1cc(N2CCN(c3ccc(C(F)(F)F)cc3[N+](=O)[O-])CC2)c2ccccc2n1	active: 7.38 µM
COc1ccc2oc(C(=O)Nc3nc4ccccc4[nH]3)c(C)c2c1	inconclusive: 9.28 µM [inhibitor, partial curve]
O=C(c1cc(COc2ccc(F)cc2Cl)on1)N1CCc2ccccc2C1	inactive
COCCCNS(=O)(=O)c1ccc2c(c1)OCCO2	inactive
Cc1onc(C(=O)/C=C/N(C)C)c1C(=O)Nc1nccs1	inconclusive: 20.8 µM [inhibitor, single point]
CCN(C(=O)COc1cc(=O)n(C)c2ccccc12)c1cccc(Cl)c1	inconclusive: 11.7 µM [inhibitor, partial curve, poor fit]
COc1ccc(NC(=S)N2CCCC(c3nc4ccc(C)cc4[nH]3)C2)cc1 (configuration not stated)	inconclusive: 4.65 µM [inhibitor, partial curve, poor fit]
CCOC(=O)c1cnc(-n2nc(C)cc2C)nc1Nc1ccccc1OC	inconclusive: 1.47 µM [inhibitor, full curve, poor fit]
C=C(C)CNC(=S)N/N=C/C1=CCC2CC1C2(C)C (configuration not stated)	inconclusive: 6.57 µM [inhibitor, partial curve, poor fit]
O=C(c1ccncc1)N1CCN(S(=O)(=O)c2cc(C(F)(F)F)cc(C(F)(F)F)c2)CC1	inconclusive: 18.5 µM [inhibitor, single point]
NC(=O)[C@H]1O[C@@H](O)[C@H](O)[C@@H](O)[C@@H]1O	inactive
CN(Cc1ccccc1)C(=O)c1[nH]cnc1C(=O)NCc1ccccc1	inactive
O=C(COc1ccccc1Cl)Nc1cc(Cl)ccc1Oc1ccccc1	inconclusive: 9.28 µM [inhibitor, single point]
O=C(Cc1csc(NC(=O)c2ccc(F)cc2)n1)NO	active: 8.28 µM
CCc1cc2ccc(C)cc2nc1SCC(=O)NC1CCCC1	inconclusive: 4.15 µM [inhibitor, partial curve]
CCO[C@H]1OC(C(=O)N2CCN(Cc3ccccc3)CC2)=C[C@@H](c2ccc(C(F)(F)F)cc2)[C@@H]1CCCO	active: 1.47 µM

Looked up above:
O=C(Cc1csc(NC(=O)c2ccc(F)cc2)n1)NO – Potency: active: 8.28 µM
CCCCC(=O)Nc1ccc(NC(=S)NC(=O)CC(C)C)cc1OC – Potency: inactive
CCc1cc2ccc(C)cc2nc1SCC(=O)NC1CCCC1 – Potency: inconclusive: 4.15 µM [inhibitor, partial curve]
COc1ccc(N2CCN(C(=O)C3CCCN3S(=O)(=O)c3cccc4nsnc34)CC2)cc1 (configuration not stated) – Potency: inconclusive: 18.5 µM [inhibitor, single point]
O=C(COc1cccc2ccccc12)NCc1cccnc1 – Potency: inactive
CCN(C(=O)COc1cc(=O)n(C)c2ccccc12)c1cccc(Cl)c1 – Potency: inconclusive: 11.7 µM [inhibitor, partial curve, poor fit]

(list continues)

Structure (SMILES)	Potency
O=C(CN1CCN(CCN2C(=O)c3cccc4cccc(c34)C2=O)CC1)c1ccc(Cl)cc1	inconclusive: 1.47 µM [inhibitor, full curve, poor fit]
COc1ccc(CCNC(=O)COc2ccc(N(C)S(=O)(=O)c3ccc(C)cc3)cc2)cc1	inconclusive: 2.94 µM [inhibitor, full curve, poor fit]
O=C1N=C(N2CCOCC2)S/C1=C\C=C/c1ccccc1	inactive
COc1ccccc1C(=O)NC(=O)COC(=O)CNC(=O)c1ccccc1	inactive
CCOc1ccccc1C1CC(=O)Nc2cc(C)c(C)cc21 (configuration not stated)	active: 11.7 µM
CCC1(C(=O)c2ccccc2)C(c2cccc([N+](=O)[O-])c2)C1(C(=O)OC)C(=O)OC (configuration not stated)	active: 13.1 µM
CCCCC/C(=N\O)c1c[nH]c2ccccc12	inconclusive: 18.5 µM [inhibitor, partial curve, poor fit]
Cc1cccc(C)c1OCc1cc(C(=O)N2CCNC(=O)C2)no1	inconclusive: 4.65 µM [inhibitor, partial curve]
CCN(CC)C(=O)CCn1nc(-c2ccc(C)cc2)c2ccccc2c1=O	inactive
S=c1[nH]nc(-c2ccncc2)n1Cc1ccco1	inactive
COc1ccc(CNc2ccc(S(=O)(=O)N3CCN(C)CC3)cn2)cc1OC	inconclusive: 10.4 µM [inhibitor, single point]
Nc1ccc(-n2ccnc2)cc1	inconclusive: 9.28 µM [inhibitor, partial curve, poor fit]
Fc1ccc(N/N=C/C=C/c2ccccc2)c(F)c1	inconclusive: 18.5 µM [inhibitor, single point]
COCCC(=O)N1CCC(Oc2ccc(C(=O)N3CCCCCC3)cc2)CC1	inconclusive: 18.5 µM [inhibitor, single point]
CCOC(=O)C1CCN(C(=O)C2CCC(=O)N(CC3CCCCC3)C2)CC1 (configuration not stated)	inconclusive: 16.5 µM [inhibitor, partial curve, poor fit]
CC(C)NS(=O)(=O)c1ccc(OCC(=O)Nc2ccc(F)cc2)cc1	inconclusive: 0.0738 µM [inhibitor, partial curve, poor fit]
CCOC(=O)C1CCCN(C(=O)Cn2cccc2C(=O)c2ccccc2)C1 (configuration not stated)	inconclusive: 11.7 µM [inhibitor, single point]
O=C(O)c1ccn(Cn2cnc3ccccc32)n1	inactive
COc1ccc(-n2nc3c(c2NC(=O)COc2ccccc2)CS(=O)C3)cc1 (configuration not stated)	inactive
COCC(=O)Nc1cc(C(=O)NCC(C)C)ccc1Cl	inactive
CCOC(=O)c1c(NC(=O)Cn2cnc3scc(-c4ccc(C)cc4)c3c2=O)sc(C)c1C	inconclusive: 11.7 µM [inhibitor, single point]
O=C(c1ccccc1Cl)N1CCC(n2cccc2)CC1	inactive
Cc1ccc2c(=O)cc(C(=O)NC3CCS(=O)(=O)C3)oc2c1 (configuration not stated)	inconclusive: 9.28 µM [inhibitor, partial curve, poor fit]
Cc1cc(C(=O)NCCN2CCOCC2)ccc1[N+](=O)[O-]	inactive
